Data as given in PubChem BioAssay AID1259308 (NCATS, 2017).

Aim: 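Genes whose loss raises luciferase production in HEK293 cells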 (primary screen)
System: human HEK293 embryonic kidney cells stably expressing firefly luciferase (HEK-CMV-Luc2-Hygro)
Reagents: single siRNA against human genes, 0.8 pmol siRNA per well
Time to read-out: 72 h
Detection: 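Luciferase light (ONE-Glo) measured on one replicate plate set and viability (CellTiter-Glo) on the other, scaled to a negative control siRNA, with robust z-scores and luciferase per cell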
Scale: total luciferase, z-score: higher = more reporter protein produced
Call rule: 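An siRNA counts as active if its total luciferase robust z-score exceeds 3; genes with two or more such siRNAs out of three were retested with fresh siRNAs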
Calls: active = raised luciferase; inactive = no rise
Shown is one part, drawn at random, of about 59,000 reagents tested. About 1,510 of them (2.6%) were called active. 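Calls use total luciferase alone and ignore viability, so some active siRNAs may act by altering cell number.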 Reagents against one gene are numbered here. Further read-outs or replicates are left out here.

| total luciferase, z-score | call | gene | siRNA no. |
| --- | --- | --- | --- |
| 1.18 | inactive | MED12 (GeneID 9968) | 1 |
| -1.3 | inactive | MED12 (GeneID 9968) | 2 |
| -2.21 | inactive | MED12 (GeneID 9968) | 3 |
| -0.239 | inactive | SLC6A14 (GeneID 11254) | 1 |
| 0.142 | inactive | SLC6A14 (GeneID 11254) | 2 |
| -0.538 | inactive | SLC6A14 (GeneID 11254) | 3 |
| 0.144 | inactive | PSMG1 (GeneID 8624) | 1 |
| 0.972 | inactive | PSMG1 (GeneID 8624) | 2 |
| -0.179 | inactive | PSMG1 (GeneID 8624) | 3 |
| -3.02 | inactive | TXLNB (GeneID 167838) | 1 |
| -1.08 | inactive | TXLNB (GeneID 167838) | 2 |
| 0.627 | inactive | TXLNB (GeneID 167838) | 3 |
| 1.06 | inactive | ACOXL (GeneID 55289) | 1 |
| -2.68 | inactive | ACOXL (GeneID 55289) | 2 |
| -1.11 | inactive | ACOXL (GeneID 55289) | 3 |
| 1.1 | inactive | ELK4 (GeneID 2005) | 1 |
| 0.266 | inactive | ELK4 (GeneID 2005) | 2 |
| -0.559 | inactive | ELK4 (GeneID 2005) | 3 |
| -0.349 | inactive | CNNM4 (GeneID 26504) | 1 |
| -0.517 | inactive | CNNM4 (GeneID 26504) | 2 |
| 0.934 | inactive | CNNM4 (GeneID 26504) | 3 |
| 0.0298 | inactive | TRPV4 (GeneID 59341) | 1 |
| 0.144 | inactive | TRPV4 (GeneID 59341) | 2 |
| -1.77 | inactive | TRPV4 (GeneID 59341) | 3 |
| 2.05 | inactive | OR5AS1 (GeneID 219447) | 1 |
| -0.0206 | inactive | OR5AS1 (GeneID 219447) | 2 |
| -0.347 | inactive | OR5AS1 (GeneID 219447) | 3 |
| 0.344 | inactive | BZW1 (GeneID 9689) | 1 |
| 1.75 | inactive | BZW1 (GeneID 9689) | 2 |
| -0.635 | inactive | BZW1 (GeneID 9689) | 3 |
| 1.24 | inactive | ZNF475 (GeneID 100505841) | 1 |
| -1.22 | inactive | ZNF475 (GeneID 100505841) | 2 |
| -0.83 | inactive | ZNF475 (GeneID 100505841) | 3 |
| -0.981 | inactive | XKR3 (GeneID 150165) | 1 |
| -0.717 | inactive | XKR3 (GeneID 150165) | 2 |
| -2.14 | inactive | XKR3 (GeneID 150165) | 3 |
| -1.72 | inactive | PELI2 (GeneID 57161) | 1 |
| 0.457 | inactive | PELI2 (GeneID 57161) | 2 |
| 0.0649 | inactive | PELI2 (GeneID 57161) | 3 |
| -1.36 | inactive | TMED9 (GeneID 54732) | 1 |
| -0.0343 | inactive | TMED9 (GeneID 54732) | 2 |
| 2.36 | inactive | TMED9 (GeneID 54732) | 3 |
| 1.19 | inactive | PHAF1 (GeneID 80262) | 1 |
| -0.416 | inactive | PHAF1 (GeneID 80262) | 2 |
| -0.301 | inactive | PHAF1 (GeneID 80262) | 3 |
| -0.505 | inactive | OTC (GeneID 5009) | 1 |
| -0.517 | inactive | OTC (GeneID 5009) | 2 |
| 2.48 | inactive | OTC (GeneID 5009) | 3 |
| -1.52 | inactive | FGFBP1 (GeneID 9982) | 1 |
| 0.293 | inactive | FGFBP1 (GeneID 9982) | 2 |
| 1.41 | inactive | FGFBP1 (GeneID 9982) | 3 |
| 0.288 | inactive | EXOC6B (GeneID 23233) | 1 |
| -0.272 | inactive | EXOC6B (GeneID 23233) | 2 |
| 0.564 | inactive | EXOC6B (GeneID 23233) | 3 |
| 0.445 | inactive | MSH5 (GeneID 4439) | 1 |
| -1.57 | inactive | MSH5 (GeneID 4439) | 2 |
| 1.08 | inactive | MSH5 (GeneID 4439) | 3 |
